Laboratory results from patent US20050090398A1, “Novel tetrazole derivative useful as herbicides” (priority 2002, published 2005).
Some of these results come from one statement about several compounds together. At least one structure is not confirmed: it was looked up by name or label, or the drawing left a doubt.

Key:
Test in all cases: Test of pre-emergence soil treatment against field weeds
Type in all cases: in vivo
Details in all cases: 2.0 kg/ha active component, examined 4 weeks after treatment
[1] = test system: Setaria viridis
[2] = test system: Echinochloa crusgalli
[3] = test system: Amaranthus retroflexus
[4] = test system: Polygonum

CS(=O)(=O)c1ccc(C(=O)C2C(=O)CCCC2=O)c(Cl)c1Cn1ncnn1 [compound 2301]
higher than 90%: herbicidal activity against Setaria viridis [1] | herbicidal activity against Echinochloa crusgalli [2] | herbicidal activity against Amaranthus retroflexus [3] | herbicidal activity against Polygonum [4]

O=C1CCCC(=O)C1C(=O)c1ccc(Br)c(OCCn2cnnn2)c1Br [compound 1234]
higher than 90%: herbicidal activity against Setaria viridis [1] | herbicidal activity against Echinochloa crusgalli [2] | herbicidal activity against Amaranthus retroflexus [3] | herbicidal activity against Polygonum [4]

CCn1ncc(C(=O)c2ccc(Br)c(OCCn3cnnn3)c2C)c1O [compound 1593]
higher than 90%: herbicidal activity against Setaria viridis [1] | herbicidal activity against Echinochloa crusgalli [2] | herbicidal activity against Amaranthus retroflexus [3] | herbicidal activity against Polygonum [4]

Cc1nnn(CCOc2c(Cl)ccc(C(=O)C3C(=O)CCCC3=O)c2Cl)n1 [compound 2080]
higher than 90%: herbicidal activity against Setaria viridis [1] | herbicidal activity against Echinochloa crusgalli [2] | herbicidal activity against Amaranthus retroflexus [3] | herbicidal activity against Polygonum [4]

CS(=O)(=O)c1ccc(C(=O)C2C(=O)CCCC2=O)c(Cl)c1OCCn1cnnn1 [compound 715]
higher than 90%: herbicidal activity against Setaria viridis [1] | herbicidal activity against Echinochloa crusgalli [2] | herbicidal activity against Amaranthus retroflexus [3] | herbicidal activity against Polygonum [4]

CC1CC(=O)C(C(=O)c2ccc(Cl)c(OCCn3cnnn3)c2Cl)C(=O)C1 (centres unmarked) [compound 215]
higher than 90%: herbicidal activity against Setaria viridis [1] | herbicidal activity against Echinochloa crusgalli [2] | herbicidal activity against Amaranthus retroflexus [3] | herbicidal activity against Polygonum [4]

CC1(C)CC(=O)C(C(=O)c2ccc(Cl)c(OCCn3cnnn3)c2Cl)C(=O)C1 [compound 213]
higher than 90%: herbicidal activity against Setaria viridis [1] | herbicidal activity against Echinochloa crusgalli [2] | herbicidal activity against Amaranthus retroflexus [3] | herbicidal activity against Polygonum [4]

CCn1ncc(C(=O)c2ccc(Cl)c(OCCn3cnnn3)c2Cl)c1O [compound 272]
higher than 90%: herbicidal activity against Setaria viridis [1] | herbicidal activity against Echinochloa crusgalli [2] | herbicidal activity against Amaranthus retroflexus [3] | herbicidal activity against Polygonum [4]

O=C(c1ccc(Br)c(OCCn2ncnn2)c1Br)C1C(=O)C2CCC(C2)C1=O (centres unmarked) [compound 3043]
higher than 90%: herbicidal activity against Setaria viridis [1] | herbicidal activity against Echinochloa crusgalli [2] | herbicidal activity against Amaranthus retroflexus [3] | herbicidal activity against Polygonum [4]

CS(=O)(=O)c1ccc(C(=O)C2=C(Cl)CCCC2=O)c(Cl)c1Cn1ncnn1 [compound 2347]
higher than 90%: herbicidal activity against Setaria viridis [1] | herbicidal activity against Echinochloa crusgalli [2] | herbicidal activity against Amaranthus retroflexus [3] | herbicidal activity against Polygonum [4]

CS(=O)(=O)c1ccc(C(=O)C2C(=O)CCCC2=O)c(Cl)c1OCCn1ncnn1 [compound 2521]
higher than 90%: herbicidal activity against Setaria viridis [1] | herbicidal activity against Echinochloa crusgalli [2] | herbicidal activity against Amaranthus retroflexus [3] | herbicidal activity against Polygonum [4]

Cc1nnn(CCOc2c(Cl)ccc(C(=O)C3C(=O)CC(C)(C)CC3=O)c2Cl)n1 [compound 2081]
higher than 90%: herbicidal activity against Setaria viridis [1] | herbicidal activity against Echinochloa crusgalli [2] | herbicidal activity against Amaranthus retroflexus [3] | herbicidal activity against Polygonum [4]

O=C(c1ccc(Br)c(OCCn2cnnn2)c1Br)C1C(=O)C2CCC(C2)C1=O (centres unmarked) [compound 1239]
higher than 90%: herbicidal activity against Setaria viridis [1] | herbicidal activity against Echinochloa crusgalli [2] | herbicidal activity against Amaranthus retroflexus [3] | herbicidal activity against Polygonum [4]

Cc1nnnn1CCOc1c(Cl)ccc(C(=O)C2C(=O)CC(C)CC2=O)c1Cl (centres unmarked) [compound 278]
higher than 90%: herbicidal activity against Setaria viridis [1] | herbicidal activity against Echinochloa crusgalli [2] | herbicidal activity against Amaranthus retroflexus [3] | herbicidal activity against Polygonum [4]

O=C1CCCC(Cl)=C1C(=O)c1ccc(Cl)c(OCCn2cnnn2)c1Cl [compound 258]
higher than 90%: herbicidal activity against Setaria viridis [1] | herbicidal activity against Echinochloa crusgalli [2] | herbicidal activity against Amaranthus retroflexus [3] | herbicidal activity against Polygonum [4]

CCn1ncc(C(=O)c2ccc(Cl)c(OCCn3ncnn3)c2Cl)c1O [compound 2077]
higher than 90%: herbicidal activity against Setaria viridis [1] | herbicidal activity against Echinochloa crusgalli [2] | herbicidal activity against Amaranthus retroflexus [3] | herbicidal activity against Polygonum [4]

Cc1nnnn1CCOc1c(Cl)ccc(C(=O)C2C(=O)CCCC2=O)c1Cl [compound 275]
higher than 90%: herbicidal activity against Setaria viridis [1] | herbicidal activity against Echinochloa crusgalli [2] | herbicidal activity against Amaranthus retroflexus [3] | herbicidal activity against Polygonum [4]
